Measured values from publication doi:10.1101/2020.05.19.104984.
These are yes or no findings as the source states them, for the method shown. In cells and extracts the contact can be indirect. A yes stands for co-enrichment or nearness to the bait. Other partners may have been found.

What was measured:
Assay in all cases: affinity purification with mass spectrometry
[1] = target: V5-Tb927.7.3040 (Trypanosoma brucei) (UniProt Q57YB4)
[2] = target: V5-Tb927.11.4900 (Trypanosoma brucei) (UniProt Q385S8)
[3] = target: V5-Tb927.8.1500 (Trypanosoma brucei) (UniProt Q580H3)
[4] = target: TAP-ZC3H5 (Trypanosoma brucei) (UniProt Q57WV7)

Substance | binding [1] | binding [2] | binding [3] | binding [4]
TBC-B (Tb927.7.2470) (from UniProt Q57XM7) | binds weakly | binds weakly | binds weakly | 
Tb927.8.1500 protein (from UniProt Q580H3) | binds | binds |  | binds
Tb927.11.4900 protein (from UniProt Q385S8) | binds |  | binds | binds
trypanosome homologue of Saccharomyces cerevisiae Sdo1 (Tb927.4.3140) (from UniProt Q583Z1) | binds weakly | binds weakly | binds weakly | 
